From paper PMC4798371 come the findings set out here.

By UniProt entry, the sequences of proteins in these tests, tags left out. Where a name states a change or a piece, a line headed by the entry shows the natural chain unless it says otherwise.
UniProt Q38C69: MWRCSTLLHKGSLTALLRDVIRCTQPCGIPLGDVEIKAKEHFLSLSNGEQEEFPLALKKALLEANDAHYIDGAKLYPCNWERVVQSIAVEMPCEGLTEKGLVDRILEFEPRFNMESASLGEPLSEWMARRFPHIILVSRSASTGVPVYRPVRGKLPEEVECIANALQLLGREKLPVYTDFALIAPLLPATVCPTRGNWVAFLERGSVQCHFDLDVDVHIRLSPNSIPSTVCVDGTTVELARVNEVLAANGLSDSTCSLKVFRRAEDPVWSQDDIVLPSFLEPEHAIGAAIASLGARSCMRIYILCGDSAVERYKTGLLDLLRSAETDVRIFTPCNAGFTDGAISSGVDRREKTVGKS
UniProt Q389P7: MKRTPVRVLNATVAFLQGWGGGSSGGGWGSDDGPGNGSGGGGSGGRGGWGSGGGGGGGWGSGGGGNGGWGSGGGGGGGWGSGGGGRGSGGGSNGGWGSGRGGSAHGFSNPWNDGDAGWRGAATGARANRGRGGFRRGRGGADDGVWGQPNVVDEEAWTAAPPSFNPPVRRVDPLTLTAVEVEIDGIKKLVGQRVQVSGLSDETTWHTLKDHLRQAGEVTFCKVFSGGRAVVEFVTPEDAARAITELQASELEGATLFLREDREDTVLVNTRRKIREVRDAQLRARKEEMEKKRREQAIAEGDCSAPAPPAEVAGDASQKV

Assay [1] concerns the target cmyc-Tb927.10.1730 (Trypanosoma brucei) (UniProt Q38C69). In words: co-IP; anti c-myc agarose beads; mitochondrial lysate of tet-induced cells prepared with 40 U RNaseOUT (-RNase); 2 hours at 4°C; wash buffer Tris-HCl pH 8.0 10 mM, NaCl 100 mM, NP-40 0.1%; blot probed with polyclonal antibodies against MRB8170 and TbRGG2.
For assay [2] the target is unchanged. In words: co-IP; anti c-myc agarose beads; mitochondrial lysate of tet-induced cells prepared with 200 μg/ml RNase A (+RNase); 2 hours at 4°C; wash buffer Tris-HCl pH 8.0 10 mM, NaCl 100 mM, NP-40 0.1%; blot probed with polyclonal antibodies against MRB8170 and TbRGG2.

These are yes or no findings as the source states them, for the method shown. In cells and extracts the contact can be indirect. Binding can be weak; no strength is given.

Turning to “TbRGG2 (Tb927.10.10830) (from UniProt Q389P7)”, the binding entry in assay [1] and in assay [2] was “binds” throughout.
